Measured values published in patent publication EP2014281A1, “Use of inhibitors of sirtuins and/or ampk for the preparation of a medicament for the treatment of polyalanine diseases” (INSTITUT NATIONAL DE LA SANTE ET DE LA RECHERCHE MEDICALE …, priority 2007, dated 2009).

System: PABPN1
Test: Transgene expression by quantitative RT-PCR
Assay type: in vivo, C. elegans
Conditions: PABPN1-A13 animals, vs untreated

Oc1ccc(C=Cc2cc(O)cc(O)c2)cc1 [resveratrol]
Transgene expression level (ΔCt) (33 µM drug): 5.2 ± 0.2

CC(NC(=O)c1ccccc1/N=C/c1c(O)ccc2ccccc12)c1ccccc1 (stereo not shown) [sirtinol, 2-[(2-Hydroxynaphthalen-1-yl-methylene)amino]-N-(1-phenethyl)benzamide]
Transgene expression level (ΔCt) (3.7µM drug): 5.2 ± 0.5

CCCC(=O)[O-].[Na+] [sodium butyrate]
Transgene expression level (ΔCt) (33 µM drug): 3.6 ± 0.1

O=C1CCc2c(ccc3ccccc23)O1 [splitomicin, 1,2-Dihydro-3H-naphtho[2,1-b]pyran-3-one]
Transgene expression level (ΔCt) (33 µM drug): 4.0 ± 0.3
